# Measured values: publication PMC6019379, “RecA-like domain 2 of DNA-dependent ATPase A domain, a SWI2/SNF2 protein, mediates conformational integrity and ATP hydrolysis” (Bioscience Reports, 2018)
# Changes are numbered by the printed parent chain. pKd: −log10 of the molar value. The exact form of at least one protein or probe is not confirmed. Where a protein sequence is shown, tags need not be part of it.
# Experiments:
# Assay in all cases: intrinsic tryptophan fluorescence titration
# Conditions in all cases: saturating ATP; recombinant protein; protein details: His (Ni-NTA, pET-14b); folded or branched DNA
# [1] = target: T1, ADAAD H594A H814A (Bos taurus (bovine)) (UniProt Q9TTA5)
# T1 sequence (looked up, limits assumed): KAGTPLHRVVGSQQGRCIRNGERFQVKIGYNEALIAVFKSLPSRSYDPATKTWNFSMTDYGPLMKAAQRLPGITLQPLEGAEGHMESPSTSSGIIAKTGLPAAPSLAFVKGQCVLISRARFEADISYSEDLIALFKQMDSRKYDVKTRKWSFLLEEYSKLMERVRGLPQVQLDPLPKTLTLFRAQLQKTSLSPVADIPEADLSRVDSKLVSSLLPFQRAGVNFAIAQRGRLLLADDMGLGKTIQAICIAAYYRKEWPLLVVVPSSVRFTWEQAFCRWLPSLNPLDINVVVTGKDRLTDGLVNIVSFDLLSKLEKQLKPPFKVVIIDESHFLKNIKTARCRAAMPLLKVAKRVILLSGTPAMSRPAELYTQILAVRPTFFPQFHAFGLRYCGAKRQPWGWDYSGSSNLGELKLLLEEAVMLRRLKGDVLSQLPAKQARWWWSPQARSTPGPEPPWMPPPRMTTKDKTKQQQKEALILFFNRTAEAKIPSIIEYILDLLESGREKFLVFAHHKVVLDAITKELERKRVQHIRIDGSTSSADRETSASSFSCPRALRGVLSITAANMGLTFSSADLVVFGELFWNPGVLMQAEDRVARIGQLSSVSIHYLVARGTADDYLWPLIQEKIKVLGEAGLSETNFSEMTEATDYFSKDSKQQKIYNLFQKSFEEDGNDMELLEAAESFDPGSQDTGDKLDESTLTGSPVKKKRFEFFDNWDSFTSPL
# [2] = target: T2, ADAAD R595A R815A (Bos taurus (bovine)) (UniProt Q9TTA5)
# T2 sequence (looked up, limits assumed): T1 sequence (looked up, limits assumed) with A594H, R595A
# [3] = target: T3, ADAAD F507A F727A (Bos taurus (bovine)) (UniProt Q9TTA5)
# T3 sequence (looked up, limits assumed): T1 sequence (looked up, limits assumed) with F507A, A594H
sequence,measurement,setting,value
GCGCAATTGCGCTCGACGATTTTTTAGCGCAATTGCGC [slDNA (stem-loop DNA)],pKd,[1],8.18
same,pKd,[2],8.12
same,pKd,[3],7.48
